Experimental data reported in publication PMC1526750.

Sequences of proteins named here, by UniProt entry; tags and fusion partners are left off. A change or cut given only in a name is not applied to a line headed by its entry.
UniProt Q9H165: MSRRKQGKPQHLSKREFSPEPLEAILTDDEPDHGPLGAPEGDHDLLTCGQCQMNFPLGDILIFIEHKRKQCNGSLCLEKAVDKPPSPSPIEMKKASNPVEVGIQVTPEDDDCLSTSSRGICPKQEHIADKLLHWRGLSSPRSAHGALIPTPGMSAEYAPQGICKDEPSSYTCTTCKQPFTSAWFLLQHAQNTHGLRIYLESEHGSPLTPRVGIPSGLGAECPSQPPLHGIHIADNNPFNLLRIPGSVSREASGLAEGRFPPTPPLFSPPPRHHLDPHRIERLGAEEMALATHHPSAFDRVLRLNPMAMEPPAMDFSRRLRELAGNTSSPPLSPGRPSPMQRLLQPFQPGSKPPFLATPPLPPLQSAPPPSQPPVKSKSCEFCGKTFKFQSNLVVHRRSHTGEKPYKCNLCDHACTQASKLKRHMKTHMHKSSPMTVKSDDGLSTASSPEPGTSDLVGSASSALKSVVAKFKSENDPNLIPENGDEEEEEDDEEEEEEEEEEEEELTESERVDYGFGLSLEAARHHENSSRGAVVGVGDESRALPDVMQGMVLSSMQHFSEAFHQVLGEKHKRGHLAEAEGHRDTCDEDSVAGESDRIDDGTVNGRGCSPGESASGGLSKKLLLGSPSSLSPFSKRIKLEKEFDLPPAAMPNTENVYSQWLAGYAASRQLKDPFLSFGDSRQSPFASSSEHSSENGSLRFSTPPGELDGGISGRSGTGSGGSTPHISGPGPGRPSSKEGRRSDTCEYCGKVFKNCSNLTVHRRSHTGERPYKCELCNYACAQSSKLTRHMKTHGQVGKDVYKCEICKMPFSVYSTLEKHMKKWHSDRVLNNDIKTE

What was measured:
FLAG-BCL6 = FLAG-BCL6 (UniProt P41182); assay: EMSA; conditions: BCL6-transfected HEK293 extract; 20 mM HEPES pH 7.9, 40 mM KCl, 6 mM MgCl2, 1 mM DTT, 0.1% NP40, 3 mg/ml acetylated BSA, 10% glycerol, 2% Ficoll, PMSF, aprotinin; protein in a lysate after overexpression; protein details: FLAG
HA-BCL11A-XL (human) = HA-BCL11A-XL (human) (UniProt Q9H165); assay: EMSA; conditions: 20 mM HEPES pH 7.9, 40 mM KCl, 6 mM MgCl2, 1 mM DTT, 0.1% NP40, 3 mg/ml acetylated BSA, 10% glycerol, 2% Ficoll, PMSF, aprotinin, protein in a lysate after overexpression, residues 1-835, protein details: N-terminal HA

GCACTCCCACGCCTCACTCCCACGCCTCACTCCCACGCCTCCCACCCCCGCCTCCCACCCCCGCCT (double strand) [4x BCL11A-XL CASTing consensus probe]
binding result (FLAG-BCL6): no binding | binding result (HA-BCL11A-XL (human); HEK293 or DT40 extract, dose dependent, anti-HA supershift/ablation): binds | binding result (HA-BCL11A-XL (human); with increasing FLAG-BCL6 DT40 nuclear extract: XL binding enhanced, no heteromeric complex on DNA (anti-FLAG no effect)): binds

Construct, isoform or probe ends are uncertain for at least one entry. Results from cells or extracts need not show a direct contact. For part of these data: Negatives hold for the conditions tested.
